Source: PubChem BioAssay AID493014 (National Center for Advancing Translational Sciences (NCATS), 2011)
The list shows a part of the results. The main result of the screen is listed elsewhere. These columns were measured beside it and carry no call. The list favours compounds with an active or inconclusive main result. Words in brackets tell the shape of the fitted curve; partial curves, single points and poor fits give uncertain potencies.

Experiment: qHTS Assay to Find Inhibitors of Chronic Active B-Cell Receptor Signaling
Details: ABC-DLBCL IkBa-CBG/CBR reporter, luminescence ratio (green luciferase fused to IkBa over red control in TMD8 lymphoma cells), 4 h
Summary of the method: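 Doxycycline induced both beetle luciferases in TMD8 lymphoma cells; IKK-driven degradation limits the IkappaBalpha-fused green signal, while red luminescence normalises for cell number and nonspecific effects. Compounds tested up to 46 uM, 4 hrs.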

[1] = measured here: CBR red luminescence, cell number

SMILES	AC50 [1]	AC50 (measured here: IkBa-CBG green luminescence)
Cc1nn(-c2ccc(C(=O)O)cc2)c(=O)c2ccccc12	14.1 µM [falling, partial curve]	–
COc1ccc2c(c1)CC[C@@H]1[C@@H]2CC[C@]2(C)C(=O)CC[C@@H]12	18.4 µM [rising, single point]	23.1 µM [falling, partial curve, poor fit]
C/C(=N\Nc1ccccc1[N+](=O)[O-])c1ccc(N2CCOCC2)cc1	17.8 µM [rising, single point]	–
COc1ccccc1/C=C/C(=O)Nc1cccnc1Cl	7.08 µM [falling, partial curve, poor fit]	–
Nc1ncnc(N)c1N=Nc1ccccc1	14.1 µM [falling, partial curve, poor fit]	–
COc1ccccc1NC(=O)c1nc[nH]c1C(=O)Nc1ccccc1OC	10 µM [falling, partial curve, poor fit]	–
O=C(NNc1nc2c(F)cccc2s1)c1ccc(F)cc1	11.2 µM [falling, partial curve, poor fit]	–
CCN1CCN(C(=O)c2cc3nc(-c4ccccc4)cc(C(F)(F)F)n3n2)CC1	20.6 µM [rising, single point]	–
CC(C)CNC(=O)CO/N=C/c1ccccc1Cl	35.5 µM [rising, single point]	–
CCC(=O)N1CCC2(CC1)Oc1ccc(F)cc1C(=O)C21CC(c2cccnc2)=NO1 (configuration not stated)	0.708 µM [rising, full curve, poor fit]	–
COC(=O)c1cc(NC(=O)c2ccccc2F)cc(C(=O)OC)c1	2.51 µM [falling, partial curve, poor fit]	–
COc1ccc(C(C)=O)cc1CSc1nnc(-c2ccc(Cl)cc2)n1-c1ccccc1	11.2 µM [falling, single point]	–
Nc1ccc(C(=O)N/N=C\c2ccc(OC(=O)c3ccccc3Cl)cc2)cc1	20 µM [falling, single point]	–
CCN(CCS(=O)(=O)c1ccc(Cl)cc1)C(=O)Nc1ccccc1	5.01 µM [falling, partial curve, poor fit]	–
O=C(Nc1ccc(Br)cc1)c1cccc(N2C(=O)CCC2=O)c1	35.5 µM [falling, single point]	–
CCOc1ccc2nc(Cl)c(C3CC(c4ccccc4)=NN3C(=O)c3cccs3)cc2c1 (configuration not stated)	0.366 µM [falling, full curve, poor fit]	–
COC(=O)c1ccccc1NC(=O)c1cnn2cccnc12	35.5 µM [falling, single point]	–
CC(=O)c1ccc(S(=O)(=O)N2CCc3ccccc3C2)cc1	10 µM [rising, partial curve, poor fit]	–
CN1C(=O)/C(=C2\SC(=S)N(CCCCCC(=O)O)C2=O)c2ccccc21	4.47 µM [falling, full curve]	–
CC1=NN(C(N)=S)C(=O)C1N=Nc1ccc(Br)cc1 (configuration not stated)	17.8 µM [rising, single point]	–
CC(C)(C)CN1CCN(Cc2cccnc2)CC1CCO (configuration not stated)	2.24 µM [rising, full curve]	–

Single records, from the list above. Values in the order: AC50 [1]	AC50 (measured here: IkBa-CBG green luminescence)
`CCC(=O)N1CCC2(CC1)Oc1ccc(F)cc1C(=O)C21CC(c2cccnc2)=NO1` (configuration not stated) in the list: 0.708 µM [rising, full curve, poor fit]	–
`CCN1CCN(C(=O)c2cc3nc(-c4ccccc4)cc(C(F)(F)F)n3n2)CC1` in the list: 20.6 µM [rising, single point]	–
`COc1ccc(C(C)=O)cc1CSc1nnc(-c2ccc(Cl)cc2)n1-c1ccccc1` in the list: 11.2 µM [falling, single point]	–

(continued)

SMILES	AC50 [1]	AC50 (measured here: IkBa-CBG green luminescence)
O=C(CC1NCCNC1=O)Nc1ccc([N+](=O)[O-])cc1 (configuration not stated)	5.62 µM [rising, full curve, poor fit]	–
CCCCOc1ccc(C(=O)N2CCN(CC(=O)Nc3ccc(C)cc3)CC2)cc1OC	10 µM [falling, partial curve, poor fit]	–
CN(CC(=O)Nc1ccccc1Cl)C(=O)COC(=O)/C=C/c1ccc(C(F)(F)F)cc1	35.5 µM [falling, single point]	–
COC(=O)C1=NN(C(=O)c2cccc(Cl)c2)C(O)(C(C)(C)C)C1 (configuration not stated)	6.51 µM [falling, partial curve]	–
COCCNC(=O)c1cc2oc3ccccc3c2n1C	6.51 µM [rising, single point]	–
COC(=O)c1ccc(COc2ccc(C3C4=C(CCCC4=O)Nc4onc(C)c43)cc2)cc1 (configuration not stated)	0.164 µM [falling, full curve, poor fit]	–
Cc1cccc(NC(=O)CSc2nsc(SCC(=O)Nc3cccc(C)c3)c2C#N)c1	1.16 µM [falling, full curve, poor fit]	–
Cc1cnc(C(=O)Nc2ccccc2F)cn1	0.0517 µM [falling, full curve, poor fit]	–
CCc1nn(CCCC(=O)N2CCC(C)CC2)c(=O)c2cc3occc3n12	7.08 µM [rising, partial curve, poor fit]	–
CCC(=O)N(C)/C=C1\Sc2ccccc2C1=O	12.6 µM [falling, partial curve]	–
COc1cc(C2N(Cc3ccccc3)CCN2Cc2ccccc2)ccc1OC(C)=O	14.1 µM [falling, partial curve, poor fit]	–
O=[N+]([O-])c1cc(C(F)(F)F)ccc1Cl	20.6 µM [rising, single point]	–
O=C(c1ccc(C(F)(F)F)cc1)C1CCCN(C(=O)Cn2cnnn2)C1 (configuration not stated)	6.31 µM [falling, single point]	–
COc1ccc(/C=N/NC(=O)c2nc(-c3ccccc3)cc(-c3ccccc3)n2)cc1O	3.66 µM [rising, partial curve]	–
O=c1c2c3nc4ccccc4nc3n(/N=C/c3ccncc3)c2ncn1-c1ccccc1	5.62 µM [rising, single point]	–
COc1ccc2c(c1)c(C(=O)CN1CCc3ccccc3C1)c(C)n2C	3.98 µM [rising, single point]	–
CC1CN(S(=O)(=O)c2cccc(C(=O)OC(C)C(=O)NC3CCCCC3C)c2)CC(C)O1 (configuration not stated)	22.4 µM [rising, single point]	–
C=CCn1c(SCC(=O)Nc2ccccc2OC)nc2c([nH]c3ccccc32)c1=O	3.16 µM [falling, partial curve, poor fit]	–
O=C(O)c1ccc2c(c1)C(=O)N(c1ccc(Nc3ccccc3)cc1)C2=O	35.5 µM [falling, single point]	–
COC(=O)c1oc2ccccc2c1NC(=O)c1ccccc1O	35.5 µM [rising, single point]	–
